These are yes or no findings as the source states them, for the method shown. Binding calls can cover weak binding; strength is not graded here. For part of these data: Binding seen in cells or lysates may run through a third protein.
How the values were obtained:
[1] = molecular target: MSL10_(553-734)-YN, soluble C-terminus of MSL10 (BiFC fusion) (Arabidopsis thaliana) (UniProt Q9LYG9); assay: split reporter
[2] = molecular target: MSL10^S640L_(553-734), soluble C-terminus of MSL10 with the S640L lesion, split-ubiquitin fusion (Arabidopsis thaliana) (UniProt Q9LYG9); assay: two-hybrid
[3] = molecular target: MSL10_(553-734), soluble C-terminus of MSL10, split-ubiquitin fusion (Arabidopsis thaliana) (UniProt Q9LYG9); assay: two-hybrid

Chains of the proteins cited; added tags and fusions are not shown. Lines headed by an entry give the natural chain unless they say otherwise; changes in a name come on top. Residues count along the entry.
MSL10_(553-734), soluble C-terminus of MSL10, split-ubiquitin fusion (Q9LYG9, residues 553-734): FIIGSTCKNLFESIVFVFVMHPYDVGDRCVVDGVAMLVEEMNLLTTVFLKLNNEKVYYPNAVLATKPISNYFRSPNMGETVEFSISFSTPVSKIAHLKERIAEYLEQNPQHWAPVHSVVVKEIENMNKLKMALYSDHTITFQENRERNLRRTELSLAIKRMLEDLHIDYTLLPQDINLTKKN

Row | binding [2] | binding [3] | Substance | binding [1]
1 |  |  | MSL10 N-terminal sequence (1-460) with phospho-dead lesions (BiFC fusion) (from UniProt Q9LYG9) (domain or fragment) | binds
2 | binds | binds | MSL10_(1-460) with phospho-dead residues, split-ubiquitin fusion (from UniProt Q9LYG9) (domain or fragment) | 

Reference: paper doi:10.1101/726521
